Chains of the proteins cited; added tags and fusions are not shown.
UniProt P31414: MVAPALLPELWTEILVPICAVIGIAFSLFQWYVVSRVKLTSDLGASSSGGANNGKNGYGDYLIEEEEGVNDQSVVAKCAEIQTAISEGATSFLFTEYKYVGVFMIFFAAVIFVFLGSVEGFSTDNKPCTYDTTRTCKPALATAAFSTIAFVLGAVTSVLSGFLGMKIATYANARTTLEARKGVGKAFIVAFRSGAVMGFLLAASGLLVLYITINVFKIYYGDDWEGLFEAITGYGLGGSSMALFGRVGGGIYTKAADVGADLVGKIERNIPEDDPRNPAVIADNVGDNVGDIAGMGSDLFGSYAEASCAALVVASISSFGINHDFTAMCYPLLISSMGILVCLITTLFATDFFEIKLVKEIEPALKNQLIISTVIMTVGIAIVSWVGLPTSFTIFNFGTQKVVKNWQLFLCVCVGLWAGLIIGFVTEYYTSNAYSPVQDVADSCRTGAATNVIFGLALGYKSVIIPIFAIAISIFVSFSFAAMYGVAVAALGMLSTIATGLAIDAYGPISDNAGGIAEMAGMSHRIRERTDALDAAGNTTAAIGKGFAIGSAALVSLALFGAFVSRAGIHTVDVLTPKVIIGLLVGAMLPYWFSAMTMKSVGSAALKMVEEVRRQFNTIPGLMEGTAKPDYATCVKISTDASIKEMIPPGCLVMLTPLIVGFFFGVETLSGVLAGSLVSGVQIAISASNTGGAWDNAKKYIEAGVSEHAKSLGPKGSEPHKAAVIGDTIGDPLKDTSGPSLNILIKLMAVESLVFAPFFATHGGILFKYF
UniProt P29513: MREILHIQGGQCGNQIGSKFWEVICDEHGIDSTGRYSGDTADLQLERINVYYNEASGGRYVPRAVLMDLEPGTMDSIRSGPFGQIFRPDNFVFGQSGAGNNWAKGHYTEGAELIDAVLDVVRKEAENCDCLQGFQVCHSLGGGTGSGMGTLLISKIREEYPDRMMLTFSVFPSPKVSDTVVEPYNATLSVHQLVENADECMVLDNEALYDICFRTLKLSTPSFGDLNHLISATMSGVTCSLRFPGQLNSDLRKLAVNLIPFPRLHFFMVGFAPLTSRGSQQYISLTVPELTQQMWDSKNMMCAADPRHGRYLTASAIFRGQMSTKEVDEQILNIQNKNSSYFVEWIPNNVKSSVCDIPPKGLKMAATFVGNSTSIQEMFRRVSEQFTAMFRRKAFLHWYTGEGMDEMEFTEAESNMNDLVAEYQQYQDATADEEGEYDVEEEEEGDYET

According to article PMC6052134:

T1: Arabidopsis thaliana flotillin 2 fused to GFP (Flot2-GFP) (A. thaliana) (UniProt Q4V3D6)
T1 sequence: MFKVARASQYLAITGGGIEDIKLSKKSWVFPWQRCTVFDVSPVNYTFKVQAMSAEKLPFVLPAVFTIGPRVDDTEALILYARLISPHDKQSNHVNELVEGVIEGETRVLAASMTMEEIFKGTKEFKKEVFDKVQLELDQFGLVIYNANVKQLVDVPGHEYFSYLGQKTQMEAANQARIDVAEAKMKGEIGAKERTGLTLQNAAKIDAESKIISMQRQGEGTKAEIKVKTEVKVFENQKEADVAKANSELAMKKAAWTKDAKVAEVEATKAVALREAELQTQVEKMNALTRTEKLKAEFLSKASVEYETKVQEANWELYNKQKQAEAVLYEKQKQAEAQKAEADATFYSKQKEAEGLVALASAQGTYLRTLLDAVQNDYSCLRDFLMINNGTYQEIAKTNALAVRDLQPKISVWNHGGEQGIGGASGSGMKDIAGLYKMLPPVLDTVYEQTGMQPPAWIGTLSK

B1: Glyceraldehyde-3-phosphate dehydrogenase (protein, UniProt P25856 61-396)
chain: KLKVAINGFGRIGRNFLRCWHGRKDSPLDIIAINDTGGVKQASHLLKYDSTLGIFDADVKPSGETAISVDGKIIQVVSNRNPSLLPWKELGIDIVIEGTGVFVDREGAGKHIEAGAKKVIITAPGKGDIPTYVVGVNADAYSHDEPIISNASCTTNCLAPFVKVLDQKFGIIKGTMTTTHSYTGDQRLLDASHRDLRRARAAALNIVPTSTGAAKAVALVLPNLKGKLNGIALRVPTPNVSVVDLVVQVSKKTFAEEVNAAFRDSAEKELKGILDVCDEPLVSVDFRCSDFSTTIDSSLTMVMGDDMVKVIAWYDNEWGYSQRVVDLADIVANNWK
B2: Syntaxin-71 (protein, UniProt Q9SF29 1-266)
chain: MTVIDILTRVDSICKKYDKYDVDKQREANISGDDAFARLYGAFETQIETALEKAELVTKEKNRAAAVAMNAEIRRTKARLSEEVPKLQRLAVKRVKGLTTEELAARNDLVLALPARIEAIPDGTAGGPKSTSAWTPSSTTSRPDIKFDSDGRFDDDYFQESNESSQFRQEYEMRKIKQEQGLDMISEGLDALKNMASDMNEELDRQVPLMDEIDTKVDRATSDLKNTNVRLKDTVNQLRSSRNFCIDIVLLCIVLGIAAYLYNVLK
B3: Harpin-induced protein-like (protein, UniProt Q9FNH6 1-231)
chain: MADLNGAYYGPSIPPPKKVSHSHGRRGGGCGCLGDCLGCCGCCILSVIFNILITIAVLLGIAALIIWLIFRPNAIKFHVTDAKLTEFTLDPTNNLRYNLDLNFTIRNPNRRIGVYYDEIEVRGYYGDQRFGMSNNISKFYQGHKNTTVVGTKLVGQQLVLLDGGERKDLNEDVNSQIYRIDAKLRLKIRFKFGLIKSWRFKPKIKCDLKVPLTSNSTSGFVFQPTKCDVDF
B4: Hypersensitive-induced response protein 2 (protein, UniProt Q9SRH6 1-285)
chain: MGNLFCCVLVKQSDVAVKERFGKFQKVLNPGLQFVPWVIGDYVAGTLTLRLQQLDVQCETKTKDNVFVTVVASIQYRVLADKASDAFYRLSNPTTQIKAYVFDVIRACVPKLNLDDVFEQKNEIAKSVEEELDKAMTAYGYEILQTLIIDIEPDQQVKRAMNEINAAARMRVAASEKAEAEKIIQIKRAEGEAESKYLSGLGIARQRQAIVDGLRDSVLGFAGNVPGTSAKDVLDMVMMTQYFDTMRDIGATSKSSAVFIPHGPGAVSDVAAQIRNGLLQANNAS
B5: 5-methyltetrahydropteroyltri-glutamate-homocysteine methyltransferase 1 (protein, UniProt O50008 1-765)
chain: MASHIVGYPRMGPKRELKFALESFWDGKSTAEDLQKVSADLRSSIWKQMSAAGTKFIPSNTFAHYDQVLDTTAMLGAVPPRYGYTGGEIGLDVYFSMARGNASVPAMEMTKWFDTNYHYIVPELGPEVNFSYASHKAVNEYKEAKALGVDTVPVLVGPVSYLLLSKAAKGVDKSFELLSLLPKILPIYKEVITELKAAGATWIQLDEPVLVMDLEGQKLQAFTGAYAELESTLSGLNVLVETYFADIPAEAYKTLTSLKGVTAFGFDLVRGTKTLDLVKAGFPEGKYLFAGVVDGRNIWANDFAASLSTLQALEGIVGKDKLVVSTSCSLLHTAVDLINETKLDDEIKSWLAFAAQKVVEVNALAKALAGQKDEALFSANAAALASRRSSPRVTNEGVQKAAAALKGSDHRRATNVSARLDAQQKKLNLPILPTTTIGSFPQTVELRRVRREYKAKKVSEEDYVKAIKEEIKKVVDLQEELDIDVLVHGEPERNDMVEYFGEQLSGFAFTANGWVQSYGSRCVKPPVIYGDVSRPKAMTVFWSAMAQSMTSRPMKGMLTGPVTILNWSFVRNDQPRHETCYQIALAIKDEVEDLEKGGIGVIQIDEAALREGLPLRKSEHAFYLDWAVHSFRITNCGVQDSTQIHTHMCYSHFNDIIHSIIDMDADVITIENSRSDEKLLSVFREGVKYGAGIGPGVYDIHSPRIPSSEEIADRVNKMLAVLEQNILWVNPDCGLKTRKYTEVKPALKNMVDAAKLIRSQLASAK
B6: Carbonic anhydrase 2, chloroplastic (protein, UniProt P42737 72-331)
chain: RMGNESYEDAIEALKKLLIEKDDLKDVAAAKVKKITAELQAASSSDSKSFDPVERIKEGFVTFKKEKYETNPALYGELAKGQSPKYMVFACSDSRVCPSHVLDFHPGDAFVVRNIANMVPPFDKVKYAGVGAAIEYAVLHLKVENIVVIGHSACGGIKGLMSFPLDGNNSTDFIEDWVKICLPAKSKVLAESESSAFEDQCGRCEREAVNVSLANLLTYPFVREGVVKGTLALKGGYYDFVNGSFELWELQFGISPVHSI
B7: Photosystem I reaction center subunit II-2, chloroplastic (protein, UniProt Q9SA56 45-204)
chain: EKTESSSAAPAVKEAPVGFTPPQLDPNTPSPIFAGSTGGLLRKAQVEEFYVITWNSPKEQIFEMPTGGAAIMREGPNLLKLARKEQCLALGTRLRSKYKITYQFYRVFPNGEVQYLHPKDGVYPEKANPGREGVGLNMRSIGKNVSPIEVKFTGKQSYDL
B8: Early-responsive to dehydration stress protein (protein, UniProt Q9C8G5 1-724)
chain: MEFGSFLVSLGTSFVIFVILMLLFTWLSRKSGNAPIYYPNRILKGLEPWEGTSLTRNPFAWMREALTSSEQDVVNLSGVDTAVHFVFLSTVLGIFACSSLLLLPTLLPLAATDNNIKNTKNATDTTSKGTFSQLDNLSMANITKKSSRLWAFLGAVYWISLVTYFFLWKAYKHVSSLRAQALMSADVKPEQFAILVRDMPAPPDGQTQKEFIDSYFREIYPETFYRSLVATENSKVNKIWEKLEGYKKKLARAEAILAATNNRPTNKTGFCGLVGKQVDSIEYYTELINESVAKLETEQKAVLAEKQQTAAVVFFTTRVAAASAAQSLHCQMVDKWTVTEAPEPRQLLWQNLNIKLFSRIIRQYFIYFFVAVTILFYMIPIAFVSAITTLKNLQRIIPFIKPVVEITAIRTVLESFLPQIALIVFLAMLPKLLLFLSKAEGIPSQSHAIRAASGKYFYFSVFNVFIGVTLAGTLFNTVKDIAKNPKLDMIINLLATSLPKSATFFLTYVALKFFIGYGLELSRIIPLIIFHLKKKYLCKTEAEVKEAWYPGDLSYATRVPGDMLILTITFCYSVIAPLILIFGITYFGLGWLVLRNQALKVYVPSYESYGRMWPHIHQRILAALFLFQVVMFGYLGAKTFFYTALVIPLIITSLIFGYVCRQKFYGGFEHTALEVACRELKQSPDLEEIFRAYIPHSLSSHKPEEHEFKGAMSRYQDFNAIAGV
B9: Aquaporin PIP1-2 (protein, UniProt Q06611 1-286)
chain: MEGKEEDVRVGANKFPERQPIGTSAQSDKDYKEPPPAPLFEPGELASWSFWRAGIAEFIATFLFLYITVLTVMGVKRSPNMCASVGIQGIAWAFGGMIFALVYCTAGISGGHINPAVTFGLFLARKLSLTRAVYYIVMQCLGAICGAGVVKGFQPKQYQALGGGANTIAHGYTKGSGLGAEIIGTFVLVYTVFSATDAKRNARDSHVPILAPLPIGFAVFLVHLATIPITGTGINPARSLGAAIIFNKDNAWDDHWVFWVGPFIGAALAALYHVIVIRAIPFKSRS

The molecules below were run against T1, Arabidopsis thaliana flotillin 2 fused to GFP (Flot2-GFP) (A. thaliana) (assay: affinity purification with mass spectrometry; anti-GFP immunoprecipitation (mouse monoclonal on Dynabeads Protein A) of the DSP cross-linked microsomal fraction of AtFlot2-GFP leaves, dissolved with 0.5% sodium deoxycholate; RIPA washes; LC-MS/MS; nine repetitions; WT plants as control).
“Ubiquitin-60S ribosomal protein L40-1 (A. thaliana (endogenous in leaves))” was tested, and the binding was “binds”.
With B1 the binding was “binds”.

The molecules below were run against T1, Arabidopsis thaliana flotillin 2 fused to GFP (Flot2-GFP) (A. thaliana) (assay: affinity purification with mass spectrometry; anti-GFP immunoprecipitation (mouse monoclonal on Dynabeads Protein A) of the plasma membrane fraction (PEG/dextran two-phase system) isolated from the DSP cross-linked microsomal fraction of AtFlot2-GFP leaves, dissolved with 0.5% sodium deoxycholate; RIPA washes; LC-MS/MS; nine repetitions; WT plants as control).
For “Pyrophosphate-energized vacuolar membrane proton pump 1 (from UniProt P31414 1-770)”, the binding was “binds”.
“Tubulin beta-5 chain (from UniProt P29513 1-449)” was tested, and the binding was “binds”.
In the case of “Ubiquitin-60S ribosomal protein L40-1 (A. thaliana (endogenous in leaves))”, the binding is reported as “binds”.
With B2 the binding was “binds”.
With B3 the binding was “binds”.
For B4, the binding was “binds”.
With B5 the binding was “binds”.
For B6, the binding was “binds”.
For B7, the binding was “binds”.
In the case of B8, the binding is reported as “binds”.
B9 was tested, and the binding was “binds”.

These are yes or no findings as the source states them, for the method shown. In cells and extracts the contact can be indirect. These calls come from enrichment with a bait or labelling near it, and not all partners need be listed. Sequences can lack the tags named with a protein.
